# According to PubChem BioAssay AID662 (National Center for Advancing Translational Sciences (NCATS), 2007):
# Several values for one entry are separate records, joined by “and”; a condition that tells them apart may be missing. Identical values can stand only once. The list shows a part of the results. These are further read-outs of the screen, such as a control signal, another cell line or another target. No call is given for them. Compounds called inactive in the main read-out are mostly missing here. The note in brackets gives the kind of curve behind each potency; many fits are weak.
# Test: Cell signaling CRE-BLA (Fsk stim)
# Conditions: CHO CRE-bla reporter (cAMP response element driving beta-lactamase), forskolin EC10, beta-lactamase ratio; measured here: 460 nm blue channel
# In short: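 CRE-bla CHO cells stimulated with EC10 NKH 477 (water-soluble forskolin) and compound titrations, 3 h at 37C; beta-lactamase read with CCF4 after 2 h at room temperature. Activity from 460/530 nm emission ratio, AC50 values for positive or negative modulation.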
row,SMILES,AC50
1,Cc1nn(-c2ccc3nnc(Br)n3n2)c(C)c1Br,"3.98 µM [falling, partial curve]"
2,CCCCc1ccc(NC(=O)C2CCCO2)cc1 (stereo not drawn),"0.00316 µM [falling, full curve, poor fit]"
3,O=c1[nH]c2[nH]c(=S)[nH]c(=S)c2[nH]1,"0.1 µM [rising, partial curve]"
4,CC(=O)C1=C(C)NC(SCC(=O)c2ccc(F)cc2)=C(C#N)C1c1ccco1 (stereo not drawn),"15.8 µM [rising, partial curve]"
5,CCCC(c1nnnn1CS(=O)(=O)c1ccc(C)cc1)N1CCN(c2ccccc2)CC1 (stereo not drawn),"25.1 µM [falling, partial curve]"
6,Cc1ccc(OCC(=O)N2CCN(C(=O)CCC3CCCC3)CC2)cc1,"1.26 µM [falling, full curve, poor fit]"
7,O=C(c1nnc(Cc2ccc(Cl)cc2)o1)N1CCc2ccccc2C1,"25.1 µM [falling, single point]"
8,Cc1csc(SCC(=O)Nc2c(C)n(C)n(-c3ccccc3)c2=O)n1,"5.01 µM [falling, full curve, poor fit]"
9,O=C(O)CCC(=O)Nc1ccc2ccccc2c1,"0.000794 µM [falling, full curve, poor fit]"
10,COc1ccc(CNc2ncncc2-c2cccc(C#N)c2)c(OC)c1,"10 µM [rising, partial curve]"
11,CSc1ncnc2nc[nH]c12,"12.6 µM [rising, partial curve]"
12,CN(C)c1ncc2nc(-c3ccc(F)cc3)c(=O)n(CCC#N)c2n1,"1 µM [rising, partial curve]"
13,Cc1csc(SCC(=O)N2CCN(S(=O)(=O)c3ccccc3)CC2)n1,"5.01 µM [falling, single point]"
14,COc1ccc(-c2noc(CSc3nc(-c4ccccc4)cc(=O)[nH]3)n2)cc1OC,"0.00794 µM [rising, full curve, poor fit]"
15,Cn1c(=O)c2c(nc(SCCCO)n2Cc2ccccc2Cl)n(C)c1=O,"12.6 µM [rising, single point]"
16,O=C(O)CCSCC(=O)c1ccc2c(c1)OCCO2,"12.6 µM [falling, single point]"
17,COc1ccc(-n2c(=O)c(-c3ccc(F)cc3)nc3cnc(N4CCOCC4)nc32)cc1,"3.16 µM [rising, full curve]"
18,COc1ccc(Nc2nc(N)nc(CSc3n[nH]c(-c4ccccc4)n3)n2)cc1,"0.316 µM [rising, full curve]"
19,CN1CCN(c2ncc3nc(-c4cn(C)c5ccccc45)c(=O)n(CCC#N)c3n2)CC1,"10 µM [rising, partial curve]"
20,CCN1CCN(c2nc(-c3cccnc3)nc3ccccc23)CC1,"12.6 µM [rising, single point]"
21,CCc1ccc(-c2nc(CN3CCC(C(=O)NCc4ccco4)CC3)c(C)o2)cc1,"0.0158 µM [falling, full curve, poor fit]"
22,COC(=O)c1c(C(=O)OC)c2cc(C)ccn2c1Cl,"12.6 µM [rising, partial curve]"

row,SMILES,AC50
1,O=C(c1ccc2c(=O)n(CC3CCCO3)c(=S)[nH]c2c1)N1CCN(c2ccccc2)CC1 (stereo not drawn),"0.501 µM [falling, partial curve]"
2,O=C(NCc1ccco1)c1cnn2c1NC(c1ccc(Br)cc1)CC2C(F)(F)F (stereo not drawn),"10 µM [falling, single point]"
3,FC(F)(F)c1cc(-c2ccco2)nc(-n2cnc3ccccc32)n1,"0.00794 µM [falling, full curve, poor fit]"
4,FC(F)(F)c1ccccc1-c1nc(NCCN2CCOCC2)c2ccccc2n1,"5.01 µM [rising, single point]"
5,CCCCC(=NCCO)C1=C(O)C(C(=O)OC)C(C)(C)CC1=O (stereo not drawn),"1.26 µM [falling, partial curve]"
6,O=C(Cc1nc2ccccc2s1)c1ccc(O)cc1O,"12.6 µM [rising, single point]"
7,CCCc1nc2ccccc2c(=O)n1/N=C/c1ccc(O)c(O)c1,"3.98 µM [falling, full curve]"
8,COc1ccc(-c2cc(C(=O)NCCN3CCOCC3)c3ccccc3n2)c(OC)c1,"25.1 µM [rising, single point]"
9,COc1cccc(Cn2c(=O)c(-c3cccs3)nc3cnc(N(C)C)nc32)c1,"5.01 µM [rising, partial curve]"
10,COc1ncc2nc(CCc3ccccc3)c(=O)n(Cc3ccc(F)cc3)c2n1,"12.6 µM [rising, partial curve]"
11,CCC(=O)NCCSc1c[nH]c2ccccc12,"3.98 µM [falling, full curve, poor fit]"
12,COc1cccc(Cn2c(=O)c(-c3cccs3)nc3cnc(OCc4ccccc4)nc32)c1,"5.01 µM [rising, partial curve]"
13,COCCn1c(=O)c(-c2cccs2)nc2cncnc21,"10 µM [rising, partial curve]"
14,COc1cc2c(c(OC)c1OC)-c1ccc(OC)c(=O)cc1[C@H](NC(C)=O)CC2,"12.6 µM [rising, partial curve] and 2.51 µM [rising, full curve] and 2 µM [rising, full curve]"
15,c1ccc(OCCOc2ncnc3sccc23)cc1,"0.01 µM [falling, partial curve, poor fit]"
16,CN(C)c1ncnc2ccc(-c3ccccc3C(F)(F)F)cc12,"10 µM [rising, partial curve]"
17,Cc1ccc(CN(C)C(=O)C2CCCN2C(=O)c2cccs2)o1 (stereo not drawn),"2.51 µM [falling, partial curve]"
18,O=C1c2ccccc2CC1Sc1nnc(-c2ccncc2)o1 (stereo not drawn),"20 µM [falling, partial curve, poor fit]"
19,CNc1nc(-c2c(C)noc2C)nc2ccccc12,"5.01 µM [rising, full curve, poor fit]"
20,O=C(Nc1nc(-c2nc3ccccc3s2)cs1)C1COc2ccccc2O1 (stereo not drawn),"3.98 µM [rising, full curve]"
21,COCCCNC(=O)CCc1nc2cccnc2n1Cc1ccccc1,"5.01 µM [rising, single point]"
